Data from the ROBIN nucleic acid binder screens, doi:10.1002/anie.202211358.

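The test is a small-molecule microarray: each compound is printed twice on a reactive slide, and binding shows as fluorescence of the labelled oligonucleotide after washing. The data file lists only calls. An earlier report of the laboratory on the PreQ1, TPP and SAM-II riboswitches (doi:10.1038/s41467-019-09493-3) used 1 µM RNA for 2 h and required a mean Z-score above 3 (spot signal-to-noise against the whole library), a score well above that on a control array, and duplicate spots agreeing (coefficient of variation under 100); it then also set aside compounds that hit other targets, which this list keeps. The cut-offs behind this list may differ. A missing hit is not proof of no binding, and a hit is not a measured affinity.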
Key: yes = hit, no = tested without a hit.
This is an unselected part of the compounds tested.
A target missing from an entry has no call listed here.
A dash means that no call is listed here.

Targets, with sequences 5′ to 3′:
TPP: TPP riboswitch RNA three-way junction, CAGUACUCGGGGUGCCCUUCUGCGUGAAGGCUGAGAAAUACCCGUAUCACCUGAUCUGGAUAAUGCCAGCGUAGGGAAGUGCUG. About 160 hits among about 24,000 compounds.
SAM-II: SAM-II riboswitch RNA pseudoknot, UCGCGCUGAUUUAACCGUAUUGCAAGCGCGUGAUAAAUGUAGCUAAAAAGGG. About 200 hits among about 21,000 compounds.
PreQ1: PreQ1 riboswitch RNA pseudoknot, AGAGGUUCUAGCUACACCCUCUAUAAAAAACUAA. From B. subtilis. About 170 hits among about 24,000 compounds.

Compound	TPP	SAM-II	PreQ1
Nc1nonc1-c1noc(-c2cccc(Br)c2)n1	no	no	no
Cn1c(=O)n(C)c2cc(CNC3CCCCCCC3)ccc21	no	-	no
Cc1ccc2nc(C)c(-c3nc(C)nn3CCO)cc2c1	no	no	no
COc1cc(N2CCCC3(CCC(=O)N(Cc4ccccn4)C3)C2)nc(N)n1 (stereo not shown)	no	no	no
Cc1nnc2c3ccccc3nc(Nc3ccc4c(c3)OCO4)n12	no	-	no
C=C(C)COc1cccc(C(=O)NCC(O)COCC)c1 (stereo not shown)	no	no	no
COc1ccc(C(=O)c2sc3nc4c(cc3c2N)CCCC4)cc1OC	no	no	no
COc1ncc(-c2c(C#N)c(N)nc3c2CC(c2ccccc2)CC3)cn1 (stereo not shown)	no	no	no
Cn1c(=O)c2c(-c3ccccc3)n(CCCO)cc2n(C)c1=O	no	no	no
Cc1nc2ncccn2c1-c1csc(Nc2ccccc2)n1	no	no	no
CC1CC(Nc2ccccc2)c2ccccc2N1C(=O)c1ccc(Br)cc1 (stereo not shown)	no	no	no
COc1ccccc1OCC(=O)N1C[C@@H](CN2CCCCCC2)[C@@H](CO)C1	no	no	no
CN1C(=O)C(Cc2c[nH]c3ccccc23)NC1=S (stereo not shown)	no	no	no
CCOC(=O)c1ccc2ncc(C(=O)OCC)c(NCc3ccco3)c2c1	no	no	no
Cc1cccc(CO)c1NC(=O)c1cccc(CN(C)Cc2ccoc2)c1	no	no	no
O=C(O)C1CC2(CCNCC2)CN1C(=O)CCCc1cn[nH]c1 (stereo not shown)	no	no	no
N#Cc1sc2nc(-c3ccccc3)cc(-c3ccccc3)c2c1N	no	no	no
O=C(CSC1Nc2sc3c(c2C(=O)N1c1ccccc1)CCC3)c1ccc(Br)cc1 (stereo not shown)	no	no	no
CCC(CO)N(Cc1cccnc1)Cc1nn(C)c2cccc(Cl)c12 (stereo not shown)	no	no	no
C=CCc1ccccc1OCC(O)CN1CCN(c2ccccc2OC)CC1.Cl (stereo not shown)	no	no	no
Cn1c(=O)n(C)c2cc(COc3ccc(CNC4CCCCC4)cc3)ccc21	no	-	no
Cc1cc(C)n(-c2nc3ccccc3nc2Nc2ccc(F)cc2)n1	no	no	no
Cc1ccsc1CN(C(=O)c1ccccc1NCC(=O)O)C1CC1	no	no	no
CCOc1ccc(Cc2cc([C@@H]3O[C@H](CO)[C@@H](O)[C@H](O)[C@@H]3O)ccc2Cl)cc1	no	no	no
CN1C[C@@H](N)C[C@H]1C(=O)NCCSc1cnn[nH]1	no	no	no
Cc1ncc2c(c1CNC(=O)c1cccc(-c3ccc(O)cc3)c1)CCNC2	no	no	no
CCOC(=O)c1cnn(-c2ccc(C(=O)Nc3ccc(F)cc3)cn2)c1N	no	no	no
O=C(CNc1ccc2c(c1)OCO2)NN=Cc1ccccc1Cl	no	no	no
CC1(CCc2ccccc2)OC(=O)N(CCO)C1(C)O (stereo not shown)	no	no	no
COC(=O)c1nc2ccc(Cl)cn2c1NCCc1ccccc1	no	no	no
CN(Cc1ccc(-n2cccn2)cc1)c1cc(N)nc(N)n1	no	no	no
CCNc1oc(-c2ccc(S(=O)(=O)N3CCCCC3)cc2)nc1C#N	no	-	no
COc1ccc(Cn2c(C(=O)O)c(CNCc3ccc(C)o3)c3ccc(OC)cc32)cc1	no	-	no
COC(=O)c1ccc(Oc2nc(C)cc(N)n2)cc1	no	no	no
COc1ccc(C)cc1Nc1nc2ccccc2c2nncn12	no	no	no
CCO[C@H]1C[C@@H](O)C12CCN(C(=O)CCC(=O)c1ccc(OC)cc1)CC2	no	no	no
Cc1ccccc1N1C(=O)c2ccccc2C1Nc1ccc2c(c1)OCCO2 (stereo not shown)	no	no	no
CCOC(=O)c1ccc(Nc2cc(C)nc(-c3ccccc3)n2)cc1	no	no	no
Cc1[nH]c(=O)n(C(C)C)c(=O)c1Br	no	no	no
COc1ccc(NCC(=O)Nc2cc(C(F)(F)F)cc(NC(=O)CNc3ccc(OC)cc3)c2Cl)cc1	no	no	no
CCOC(=O)c1cnc2ccc(C(=O)OC)cc2c1NCCO	no	no	no
Cc1nc2c(c(Nc3cc(Cl)ccc3C)n1)CCC2	no	-	no
O=c1[nH]cc(Cl)cc1Cl	no	no	no
CCc1ccc(CNCc2ccccc2OC)cc1	no	no	no
CC(C[N+](C)(C)C)OC(N)=O (stereo not shown)	no	no	no
COc1ccc(C(=O)c2sc3nc(-c4ccccc4OC)ccc3c2N)cc1	no	no	no
CCn1cc(CN2C[C@@H]3c4ccc(OC)cc4OC[C@]3(CO)C2)cn1	no	no	no

Some entries from above, unchanged:

{"compound": "Cn1c(=O)n(C)c2cc(CNC3CCCCCCC3)ccc21", "TPP": "no", "PreQ1": "no"}
{"compound": "COC(=O)c1nc2ccc(Cl)cn2c1NCCc1ccccc1", "TPP": "no", "SAM-II": "no", "PreQ1": "no"}
{"compound": "COc1ccc(C(=O)c2sc3nc4c(cc3c2N)CCCC4)cc1OC", "TPP": "no", "SAM-II": "no", "PreQ1": "no"}